Construct, isoform or probe ends are uncertain for at least one entry. For some of these results: The comparison behind a weaker result is the experiment's own reference, which may not be listed here.
Experiments:
[1] = target: PARP1 (UniProt P09874); experiment: pull-down (FREP); conditions: EcoRI and BamHI release, much less than FoxO1-L-B and FoxO1-R-B; label: 5' biotin
[2] = target: PARP1 (UniProt P09874); experiment: DNase I footprinting; conditions: label: FAM (EMSA probe), probe letters rebuilt from the primers and the genome, part of a longer molecule
[3] = target: PARP1 (UniProt P09874); experiment: EMSA; conditions: 2-10 ug PARP1, 40-fold cold probe competes; EMSA: 0, 2, 5 or 10 ug PARP1 pre-incubated 30 min with 50 ng DNA probe (Thermo EMSA kit), nondenaturing PAGE; label: FAM (EMSA probe); probe letters rebuilt from the primers and the genome; part of a longer molecule

By UniProt entry, the sequences of proteins in these tests, tags left out.
UniProt P09874, whole entry: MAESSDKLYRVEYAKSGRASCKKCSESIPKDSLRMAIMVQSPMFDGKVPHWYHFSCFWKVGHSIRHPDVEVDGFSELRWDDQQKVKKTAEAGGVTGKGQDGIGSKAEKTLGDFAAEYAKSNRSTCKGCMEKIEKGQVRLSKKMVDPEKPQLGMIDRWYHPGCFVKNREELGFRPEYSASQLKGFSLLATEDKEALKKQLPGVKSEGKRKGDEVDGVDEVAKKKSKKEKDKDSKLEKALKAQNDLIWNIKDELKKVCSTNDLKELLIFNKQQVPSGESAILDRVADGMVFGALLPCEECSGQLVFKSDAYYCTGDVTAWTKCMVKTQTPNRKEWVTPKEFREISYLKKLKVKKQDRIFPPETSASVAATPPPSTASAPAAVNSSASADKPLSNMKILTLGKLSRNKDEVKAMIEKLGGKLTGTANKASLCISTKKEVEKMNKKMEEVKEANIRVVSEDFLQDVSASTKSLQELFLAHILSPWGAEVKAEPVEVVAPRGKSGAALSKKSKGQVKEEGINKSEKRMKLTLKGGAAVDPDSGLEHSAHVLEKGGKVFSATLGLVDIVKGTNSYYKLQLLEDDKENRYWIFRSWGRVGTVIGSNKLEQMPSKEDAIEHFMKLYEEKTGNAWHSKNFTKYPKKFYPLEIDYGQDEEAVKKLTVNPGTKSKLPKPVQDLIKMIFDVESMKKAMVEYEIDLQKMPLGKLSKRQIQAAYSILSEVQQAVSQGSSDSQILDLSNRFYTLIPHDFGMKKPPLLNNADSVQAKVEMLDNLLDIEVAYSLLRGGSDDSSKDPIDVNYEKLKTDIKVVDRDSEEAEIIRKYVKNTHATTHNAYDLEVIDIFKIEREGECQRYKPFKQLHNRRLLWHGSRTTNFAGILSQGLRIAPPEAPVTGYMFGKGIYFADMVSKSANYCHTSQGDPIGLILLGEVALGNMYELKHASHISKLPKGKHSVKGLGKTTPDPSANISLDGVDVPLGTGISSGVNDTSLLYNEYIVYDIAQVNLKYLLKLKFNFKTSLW

Row | Sequence | binding result [1] | binding result ([2]; 30 ug PARP1, -813 to -826 protected) | binding result [3] | binding result ([2]; 30 ug PARP1, less protection than L and R) | binding result ([2]; 30 ug PARP1, -1805 to -1828 protected)
1 | AATGATACGGCGACCACCGAGGATCCAGGGCTGTAGATTCCGGCCTGAAGCCTGGGAATTCTCGTATGCCGTCTTCTGCTTG (double strand) [NS-biotin] | binds more weakly | – | – | – | –
2 | AGCCTGTGCCATTCGGTCTAGCCAGAGGCGCGTCACCCAGCCGGCAGCCCCCAGCCGGATTCACTGTATTCTTGACCTTTTTTAAAATGCTAGAAATGAGGAACAGGGGCTCCGGCGCGGGGAGGAGATTATCTGGCCTCCCTGAACACACGAATCCAAAGGCACCCGCGACCGCATGCCCTCCGTGGGAACCTCTTCCCCTGGGCGGGAATCTCCCGCTCCGTCCACTAAGTCCAGGGCCGGCAGCGAAGGGCTCAGGAGCGCAGTTAGAGAGAACCA (double strand) [FoxO1-L] | – | binds | binds | – | –
3 | AGGTGGGAAGATAATGGCCCTTGTGTCTCAAGCAGAAGAAACAGTTTTCCAGTTTTGTTTTGTTATGCTTTTGCTTTTTTAGGAAGAATATGGAAGGCATTTCCTTTTAGAAAGATGGGACCACTTAGGATGGAAGATGGACAGTAGGGTTTTAAATATCTTGTCCAAAAGGACAGCTTCCAACTCTTGTTTTTTAATCCCTTTCTTTCTTACAAGTAATTCTGCAATGGAAAAAGTGGCATCTAGAGAAAATTAGTCAGTTGGACAAGAGGTTGT (double strand) [FoxO1-M] | – | – | binds | binds more weakly | –
4 | TAGTCCGGGCTCCTGTTTCTTCATAATCTATTTATCACAACAGCTTCTTGCTGATACTAGGCATGGGTGGGGTGGGGAGCGTGAGCCGGATGGATTGGGGACGGGCGGGGACTGGTTCCCACCCTGGTCTTGTGGTCTCTTCACGTTTACTATCAAATTTGGACAGTCTGGGCCTCCTCTGACAGCCGCTAGGGGACCTCAGTAACTCAGATGATGAGCTCAAAGGCAGGCCCCCAAAGTACAGCTGTTGCTTCCCCCCACCTTTCCAATTACACTCTGCAGAAGCAGCCCCCGATCCAGACAGCCGCACCCTAAAA (double strand) [FoxO1-R] | – | – | binds | – | binds

— publication PMC6987093
